Data reported in article PMC10349095.
Results are given in words; binding and its absence hold for the method and conditions named. Binding seen in cells or lysates may run through a third protein. Here binding means that the protein was enriched with, or labelled near, the bait; the list need not be complete.

Amino acid sequences for entries named in this document (tags omitted).
UniProt Q9Z2K1: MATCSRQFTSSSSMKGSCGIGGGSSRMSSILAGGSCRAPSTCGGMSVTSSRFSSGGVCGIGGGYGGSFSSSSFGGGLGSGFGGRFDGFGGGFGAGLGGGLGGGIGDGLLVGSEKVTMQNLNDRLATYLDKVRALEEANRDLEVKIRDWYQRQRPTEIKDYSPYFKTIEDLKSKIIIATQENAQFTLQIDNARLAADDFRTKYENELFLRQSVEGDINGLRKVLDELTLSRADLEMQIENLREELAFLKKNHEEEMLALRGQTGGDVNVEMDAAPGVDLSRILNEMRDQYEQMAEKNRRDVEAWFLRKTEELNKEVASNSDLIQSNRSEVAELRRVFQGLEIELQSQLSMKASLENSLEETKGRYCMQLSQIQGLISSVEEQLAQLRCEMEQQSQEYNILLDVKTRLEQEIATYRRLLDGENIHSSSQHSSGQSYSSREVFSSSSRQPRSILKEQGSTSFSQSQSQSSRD

T1: zinc fingers and homeoboxes 1 (Zhx1) protein, endogenous in cardiac progenitors (mouse (endogenous in cardiac progenitors from mouse ESCs)) (UniProt P70121)
T1 sequence: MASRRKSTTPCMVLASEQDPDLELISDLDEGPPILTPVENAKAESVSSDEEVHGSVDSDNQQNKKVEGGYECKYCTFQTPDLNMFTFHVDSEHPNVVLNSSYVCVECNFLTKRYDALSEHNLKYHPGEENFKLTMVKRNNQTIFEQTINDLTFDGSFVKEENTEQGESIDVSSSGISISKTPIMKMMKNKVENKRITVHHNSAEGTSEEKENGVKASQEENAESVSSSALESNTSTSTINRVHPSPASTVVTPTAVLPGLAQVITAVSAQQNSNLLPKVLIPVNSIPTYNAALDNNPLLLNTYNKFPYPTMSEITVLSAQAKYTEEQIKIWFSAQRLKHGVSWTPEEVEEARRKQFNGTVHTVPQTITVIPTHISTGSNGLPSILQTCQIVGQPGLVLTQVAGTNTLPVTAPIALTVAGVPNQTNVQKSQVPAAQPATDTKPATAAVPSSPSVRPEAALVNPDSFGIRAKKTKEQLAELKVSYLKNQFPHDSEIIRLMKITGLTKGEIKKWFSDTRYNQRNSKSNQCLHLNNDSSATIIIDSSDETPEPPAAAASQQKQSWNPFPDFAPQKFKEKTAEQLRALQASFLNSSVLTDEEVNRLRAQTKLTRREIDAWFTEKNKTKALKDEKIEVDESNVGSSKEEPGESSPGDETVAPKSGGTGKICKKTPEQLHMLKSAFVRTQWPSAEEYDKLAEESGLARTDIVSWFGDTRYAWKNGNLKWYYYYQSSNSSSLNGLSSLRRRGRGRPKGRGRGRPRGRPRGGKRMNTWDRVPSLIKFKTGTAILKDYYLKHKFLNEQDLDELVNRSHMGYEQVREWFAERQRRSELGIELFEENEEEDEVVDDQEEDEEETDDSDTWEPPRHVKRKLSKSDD

B1: Hsd17b4 (protein, UniProt P51660 1-735)
chain: MASPLRFDGRVVLVTGAGGGLGRAYALAFAERGALVIVNDLGGDFKGIGKGSSAADKVVAEIRRKGGKAVANYDSVEAGEKLVKTALDTFGRIDVVVNNAGILRDRSFSRISDEDWDIIHRVHLRGSFQVTRAAWDHMKKQNYGRILMTSSASGIYGNFGQANYSAAKLGILGLCNTLAIEGRKNNIHCNTIAPNAGSRMTETVLPEDLVEALKPEYVAPLVLWLCHESCEENGGLFEVGAGWIGKLRWERTLGAIVRKRNQPMTPEAVRDNWEKICDFSNASKPQTIQESTGGIVEVLHKVDSEGISPNRTSHAAPAATSGFVGAVGHKLPSFSSSYTELQSIMYALGVGASVKNPKDLKFVYEGSADFSCLPTFGVIVAQKSMMNGGLAEVPGLSFNFAKALHGEQYLELYKPLPRSGELKCEAVIADILDKGSGVVIVMDVYSYSGKELICYNQFSVFVVGSGGFGGKRTSEKLKAAVAVPNRPPDAVLRDATSLNQAALYRLSGDWNPLHIDPDFASVAGFEKPILHGLCTFGFSARHVLQQFADNDVSRFKAIKVRFAKPVYPGQTLQTEMWKEGNRIHFQTKVHETGDVVISNAYVDLVPASGVSTQTPSEGGELQSALVFGEIGRRLKSVGREVVKKANAVFEWHITKGGTVAAKWTIDLKSGSGEVYQGPAKGSADVTIIISDEDFMEVVFGKLDPQKAFFSGRLKARGNIMLSQKLQMILKDYAKL
B2: Ywhaq (protein, UniProt P68254 1-245)
chain: MEKTELIQKAKLAEQAERYDDMATCMKAVTEQGAELSNEERNLLSVAYKNVVGGRRSAWRVISSIEQKTDTSDKKLQLIKDYREKVESELRSICTTVLELLDKYLIANATNPESKVFYLKMKGDYFRYLAEVACGDDRKQTIENSQGAYQEAFDISKKEMQPTHPIRLGLALNFSVFYYEILNNPELACTLAKTAFDEAIAELDTLNEDSYKDSTLIMQLLRDNLTLWTSDSAGEECDAAEGAEN

Biological target: T1, zinc fingers and homeoboxes 1 (Zhx1) protein, endogenous in cardiac progenitors (mouse (endogenous in cardiac progenitors from mouse ESCs))
Assay: affinity purification with mass spectrometry; IP from lysate of cardiac progenitors (IP lysis buffer, on ice 30 min) with magnetic beads carrying an anti-Zhx1 antibody; LC-MS

binding, binds:
Krt16 (from UniProt Q9Z2K1 1-469), B1, B2
